The source of these data is the supplement of paper PMC4683952.

The other results are listed elsewhere or left out. Rule as the data show it: active = 2 or more and inactive = the rest. This data set is noisy: repeats of one test often differ as much as different tests do.

In this test the test system is Lgr5 (MarsCy1-Lgr5-EGFP, U2OS). Description: cell-surface Lgr5 expression (SCi1 fluorescence, background-subtracted) relative to WT DMSO (fold of DMSO control); higher = more Lgr5 at the plasma membrane. As to conditions: U2OS MarsCy1-Lgr5-EGFP stable; treatment time: overnight; library: ActiProbe-5K (TimTec); 25 µM.
On to `CCS(=O)(=O)Nc1ccc(Br)cn1`, for which the “cell-surface Lgr5 expression” value was inactive: 1.11. The result for `CSC1=NC2CCCCC2N1` (stereo unspecified) reads inactive: 0.973; that for `Cc1ccc(C2C(C#N)=C(N)Oc3[nH]nc(C)c32)o1` (stereo unspecified), inactive: 1.24.

In the case of `c1cc(-c2nnc3n2N=C(c2ccc4c(c2)OCO4)CS3)ccn1`, the “cell-surface Lgr5 expression” value is inactive: 0.43. The result for `C1C([C@H](OCC(=O)O)CC(C1)C)[C@H](C)C` (stereo partly specified) reads inactive: 1.36; that for `c1(/c(nc2ccccc2nc1C)C)=N\OCc1c(F)cccc1`, inactive: 1.26; that for `C(=c1/cc/c(=C(/C#N)C#N)cc1)(/C#N)C#N`, inactive: 1.07. With `Brc1ccc2noc(-c3ccccc3)c2c1` the figure was inactive: 1.14; with `Cl.c1ccc2c(c1)CCCC2C1=NCCN1` (stereo unspecified), inactive: 1.24. The result for `CC1(C)Nc2ccccc2-c2c1ssc2=S` reads inactive: 0.491. On to `CN(C)S(=O)(=O)Nc1cccc(N)c1`, for which the “cell-surface Lgr5 expression” value was inactive: 1.23. The result for `CN(C)c1ccc(-c2cc[n+](-c3nc4ccccc4nc3[N-]S(=O)(=O)c3ccccc3)cc2)cc1` reads inactive: 1.25; that for `Brc1ccc2cc[nH]c2c1`, inactive: 1.07; that for `Fc1ccc(Nc2nc(Cl)nc(Cl)n2)c(F)c1`, inactive: 1.3. With `CC12CCC(C1)C(C)(C)C2NS(=O)(=O)c1ccc(F)cc1` (stereo unspecified) the figure was inactive: 1.48; with `Fc1ccc(NC(=S)N2CCc3ccccc32)cc1`, inactive: 1.34. The result for `c1csc(Cc2cccs2)c1` reads inactive: 1.49; that for `O=c1[nH]c2ccnc(Cl)c2[nH]1`, inactive: 1.23. `CC(C)(C)OC(=O)N1Cc2[nH]cnc2CC1C(=O)O` (stereo unspecified): the “cell-surface Lgr5 expression” value was inactive: 1.63. The result for `O=C1Nc2c(ccc(Cl)c2Cl)C12OCCCO2` reads inactive: 1.27; that for `O=c1oc2cc([N+](=O)[O-])ccc2c2ccc([N+](=O)[O-])cc12`, inactive: 1.28. With `COc1ccc2c(=O)ccccc2c1OC` the figure was inactive: 1.14; with `COc1cc(OC)c(/C=N\NC(N)=S)cc1Br`, inactive: 1.2; with `CCN(CC)C(=O)NCCNC(=O)N(CC)CC`, inactive: 1.39.

On to `CC(C)(C)C1=Nn2c(nnc2-c2ccc(C(C)(C)C)cc2)SC1`, for which the “cell-surface Lgr5 expression” value is inactive: 0.861. The result for `CN(C)CCCN1C(=O)C(O)=C(C(=O)c2ccco2)C1c1cccs1` (stereo unspecified) reads inactive: 1.08; that for `Nc1nc2c(F)cc(F)cc2s1`, inactive: 1.25.

As to `CC1=NNC(=O)C1CC(=O)N/N=C/c1ccc(C)o1` (stereo unspecified), the “cell-surface Lgr5 expression” value is inactive: 1.05.

With `CCCSc1nnc2c(n1)OC(CC)Nc1ccccc1-2` (stereo unspecified), the “cell-surface Lgr5 expression” value was inactive: 0.956. Regarding `COC(=O)/C(C#N)=C/c1nccn1C`, the “cell-surface Lgr5 expression” value was inactive: 1.23. For the molecule `CCOC(=O)C1=C(C)NC(=O)NC1c1ccc(C)o1` (stereo unspecified), the “cell-surface Lgr5 expression” value was inactive: 1.07. With `OC1CCCCC1c1cccs1` (stereo unspecified) the figure was inactive: 1.27.

For the molecule `CN(C)C(=O)N1CCN(S(=O)(=O)c2ccc3c(c2)OCCO3)CC1`, the “cell-surface Lgr5 expression” value was inactive: 1.16. The result for `Cn1cc([N+](=O)[O-])c(C(=O)n2cccn2)n1` reads inactive: 1.02; that for `C=CCNS(=O)(=O)c1ccc(OC)c(OC)c1`, inactive: 1.21. `O=c1c2ccccc2nc2ccc3nnnn3n12`: the “cell-surface Lgr5 expression” value was inactive: 1.1. The result for `CC1(C)NC(=O)N(CO)C1=O` reads inactive: 1.4; that for `CC1CCN(c2nc(N3CCOCC3)nc(N3CCOCC3)n2)CC1`, inactive: 1.11.

For `Cc1ccc(/C=N/NC(=O)C(=O)NC(C)C)o1`, the “cell-surface Lgr5 expression” value is inactive: 1.12. Consider `Cn1cc(Br)c(C(=O)O)n1`, for which the “cell-surface Lgr5 expression” value was inactive: 1.29. The result for `C=CCOC(=O)CCCC(=O)NC1CCCCC1` reads inactive: 1.08; that for `CC1(C)CC(/N=N/C2CC(C)(C)NC(C)(C)C2)CC(C)(C)N1`, inactive: 1.21; that for `Oc1ccc(/C=N\n2cnnc2)c(O)c1`, inactive: 0.865. Consider `COc1c(C)c(C)c(OC)c(S(=O)(=O)NCc2ccco2)c1C`, for which the “cell-surface Lgr5 expression” value is inactive: 1.13. For `O=S(=O)(c1ccc(Br)cc1)N1CCCCCC1`, the “cell-surface Lgr5 expression” value is inactive: 1.42. On to `CSc1nsc(SC)c1C#N`, for which the “cell-surface Lgr5 expression” value was inactive: 1.22. With `CC(=O)Nc1ncnc2[nH]nnc12`, the “cell-surface Lgr5 expression” value was inactive: 0.913. As for `Cc1nc2sc3c(c2c(=O)n1-n1cccc1)CCCC3`, the “cell-surface Lgr5 expression” value is inactive: 1.11. On to `CS(=O)(=O)Nc1cc(C(F)(F)F)ccc1Oc1ccc2c(c1)OCO2`, for which the “cell-surface Lgr5 expression” value is inactive: 1.35. With `Oc1cc(Cl)c(Cl)c(Cl)c1O` the figure was inactive: 1.44. The result for `c1csc(C2NCCc3sccc32)c1` (stereo unspecified) reads inactive: 1.06; that for `C1(=C([C@]([C@@H]([C@@H]2(C1=CCN(C2)CC))c1cscc1)(C#N)C#N)N)C#N`, inactive: 1.29; that for `CN1C(=O)OC2(CC(C)(C)NC(C)(C)C2)C1(C)O` (stereo unspecified), inactive: 0.813. Regarding `CC(C)(C)c1n[nH]c2c1C(c1ccc(Br)s1)C(C#N)=C(N)O2` (stereo unspecified), the “cell-surface Lgr5 expression” value is inactive: 1.33.

On to `Cc1cc(C)c(S(=O)(=O)NC(C)C)c(C)c1`, for which the “cell-surface Lgr5 expression” value was inactive: 0.954. With `CC1CN(S(=O)(=O)c2ccc3ccccc3c2)CCN1S(=O)(=O)c1ccc2ccccc2c1` (stereo unspecified) the figure was inactive: 1.52. With `CCC(C)(C)C(=O)Nc1cc(C)on1` the figure was inactive: 1.12; with `CS(=O)(=O)OCC1COC(Cn2ccnn2)(c2ccc(Cl)cc2Cl)O1` (stereo unspecified), inactive: 1.22. The result for `O=C(O)c1n[nH]cc1Cl` reads inactive: 1.06; that for `O=C1CCCc2c1sc1nc3n(c(=O)c21)CCCCC3`, inactive: 1.19; that for `CC(C)N=C1/C(=C/c2ccc(C(C)(C)C)cc2)COC/C1=C/c1ccc(C(C)(C)C)cc1`, inactive: 1.13. Consider `O=C(NC1CC1)c1n[nH]c(=O)c2ccccc12`, for which the “cell-surface Lgr5 expression” value is inactive: 1.28. On to `N#CCOc1ccc2c(c1)OCO2`, for which the “cell-surface Lgr5 expression” value was inactive: 1.21. For `Cc1n[nH]c2c1C1(CCCCC1)C(C#N)=C(N)O2`, the “cell-surface Lgr5 expression” value is inactive: 1.15. The result for `C=CCC1CC=CC(CC=C)(C(O)(CC=C)CC=C)N1` (stereo unspecified) reads inactive: 1.23; that for `Fc1cc2nc(S)[nH]c2cc1Cl`, inactive: 1.15; that for `CCCCNC(=O)C(=O)NCCCn1ccnc1`, inactive: 1.11. The result for `CCN(CC)c1cc(F)c([N+](=O)[O-])cc1[N+](=O)[O-]` reads inactive: 0.285; that for `C1(C=2C(CN(CC2)CC)C(/C(=C1N)C#N)=C1/CCN(CC1)CC)(C#N)C#N` (stereo unspecified), inactive: 1.06.

Turning to `c1csc(C2Nc3cccc4cccc(c34)N2)c1`, the “cell-surface Lgr5 expression” value was inactive: 1.5. Take `O=S(=O)(NCCC1C=CCCC1)c1ccc(Br)s1` (stereo unspecified): the “cell-surface Lgr5 expression” value was inactive: 1.27.

Consider `Oc1ccc(Cl)cc1C1=NCCNC(C(F)(F)F)=C1`, for which the “cell-surface Lgr5 expression” value is inactive: 1.1. In the case of `Sc1nnc(-c2ccco2)n1/N=C/c1cccs1`, the “cell-surface Lgr5 expression” value was inactive: 0.969. With `CCCSc1ncc(C#N)c(N)n1` the figure was inactive: 1.13; with `Cn1cc(-c2cc(C(=O)O)on2)cn1`, inactive: 1.28. The result for `CC(=O)Nc1nc(SCSc2n[nH]c(NC(C)=O)n2)n[nH]1` reads inactive: 1.21; that for `Cn1c(=O)n(C)c2cc(Cl)ccc21`, inactive: 1.61. With `N#Cc1c(/N=C\c2ccc([N+](=O)[O-])o2)sc2c1CCCC2` the figure was active: 2.09. Regarding `Cc1cc(C)nc(Sc2ccc3nsnc3c2[N+](=O)[O-])n1`, the “cell-surface Lgr5 expression” value was active: 3.49.

`CC(=O)CSc1ncnc2sc3c(c12)CCC(C)C3` (stereo unspecified): the “cell-surface Lgr5 expression” value is inactive: 1.28.

For `Cc1cc2c(c(=O)o1)C(c1ccc(Cl)s1)C(C#N)=C(N)O2` (stereo unspecified), the “cell-surface Lgr5 expression” value was inactive: 1.62. The result for `Cn1ncc(Br)c1C(=O)Nc1cnccn1` reads inactive: 0.989; that for `CCN(CC)CCCNC(=O)C(=O)NCCCN(CC)CC`, inactive: 0.996. With `C=C(O)c1ccc(-c2nnn(Cc3ccc(C)cc3)n2)cc1.O` the figure was inactive: 0.913; with `CN(C)c1ccc(N2CC(=O)S/C2=N/C#N)cc1`, inactive: 1.35; with `COc1nc(C)nc2onc(-c3ccc(C)s3)c12`, inactive: 1.23.

Turning to `CCS(=O)(=O)c1ccc(Cl)cc1`, the “cell-surface Lgr5 expression” value is inactive: 1.2. With `COC(=O)c1ccc(Br)o1` the figure was inactive: 1; with `CC(C)Cn1c(=O)n(C)c(=O)c2[nH]cnc21`, inactive: 1.41; with `C=C(C)CNC(=S)Nc1ccc(F)c(F)c1`, inactive: 1.06. The result for `O=C1C(=O)N2CCCc3cccc1c32` reads inactive: 1.28; that for `COc1ccc(C2NN=C(c3ccccc3)S2)c2ccccc12` (stereo unspecified), inactive: 0.924; that for `N=c1[nH]c(=O)c2nn[nH]c2[nH]1`, inactive: 0.982. The result for `Clc1ccc(/C=N\N=c2/[nH]c(-c3ccc(Br)cc3)cs2)cc1` reads inactive: 0.925; that for `C=CCNc1nc(N)c(/C(N)=N\C#N)s1`, inactive: 1.04. On to `Sc1nnc(-c2cccs2)o1`, for which the “cell-surface Lgr5 expression” value is inactive: 1.23. As for `C=CCC1Cc2ccccc2C(CC=C)N1.Cl` (stereo unspecified), the “cell-surface Lgr5 expression” value was inactive: 1.15. The result for `Nc1ncc2c(n1)CCCC2=O` reads inactive: 1.07. The result for `Cc1nc2c(o1)CCc1ccccc1C2O` (stereo unspecified) reads inactive: 0.796. The result for `COc1nc(N2CCCCCC2)nc(N2CCCCCC2)n1` reads inactive: 1.33; that for `N#C/C(=C/c1ccc2c(c1)OCO2)C(N)=S`, inactive: 1.09.

With `CN(c1nc2ccccn2c(=O)c1C=O)C1CCCCC1`, the “cell-surface Lgr5 expression” value is inactive: 0.925. As for `O=S(=O)(Nc1cc(Cl)cc(Cl)c1)c1ccc(F)cc1`, the “cell-surface Lgr5 expression” value is inactive: 1.14. With `O=[N+]([O-])c1ccc(Cl)c(Nc2nc3nonc3nc2Nc2cc([N+](=O)[O-])ccc2Cl)c1` the figure was inactive: 1.2; with `C(=N/N1CCN(C2c3ccccc3-c3ccccc32)CC1)/c1cccc2ccccc12`, inactive: 0.958; with `O=S(=O)(c1ccc2oc3ccccc3c2c1)N1CCN(c2ccccc2)CC1`, active: 2.04. Consider `FC(OC(F)(F)F)c1nc2ccccc2[nH]1` (stereo unspecified), for which the “cell-surface Lgr5 expression” value was inactive: 0.979. For `CC1CN(S(=O)(=O)c2cccs2)CC(C)O1` (stereo unspecified), the “cell-surface Lgr5 expression” value is inactive: 1.43. With `C=CC[C@@H]1Cc2c(Br)ccc(Br)c2[C@@H](CC=C)N1.Cl` the figure was inactive: 1.16; with `NS(=O)(=O)c1ccc2c(c1)NC(=O)CO2`, inactive: 1.16; with `O=C1CC(O)(C(F)(F)F)OCC12CCCCC2` (stereo unspecified), inactive: 1.02.
